Test results: paper PMC4872778
No constants are given. Whether binding was seen depends on the method and setting. Binding seen in cells or lysates may run through a third protein. Some entries that bind do so weakly or less than the wild type. Blank lines part the entries; values can stand above or below the binder they belong to.

Legend:
[1] = target: DAPK, wild type, as used in the IP assays of Figures 3A, 3B and 4D (UniProt P53355); assay: co-IP; reciprocal immunoprecipitation of DANGER and DAPK in NSCLC cells (Figure 3A, 3B); antibodies and constructs not told
[2] = target: T1, DAPK DD-only as used in the IP assay of Figure 4D (UniProt P53355); assay: co-IP; IP assay ('binding assay') of DAPK forms (WT, DD-only, ΔDD) with DANGER (Figure 4D); antibodies and constructs not told
T1 sequence: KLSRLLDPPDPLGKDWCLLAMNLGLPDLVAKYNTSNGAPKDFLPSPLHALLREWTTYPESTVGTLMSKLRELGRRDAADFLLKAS

[3] = target: DAPK, wild type, as used in the IP assays of Figures 3A, 3B and 4D (UniProt P53355); assay: as above
[4] = target: DAPK-VN, wild type (from pBiFC-DAPK-VN) (UniProt P53355); assay: split reporter; BiFC with Venus fragments (VN on DAPK forms, VC on DANGER) in transiently transfected live NCI-H460 or A427 cells; fluorescence microscopy
[5] = target: T2, DAPK DD-only-VN (from pBiFC-DAPK (DD-only)-VN) (UniProt P53355); assay: as above
T2 sequence: T1 sequence

[6] = target: death-associated protein kinase (DAPK), endogenous (human (endogenous in NCI-H460 and A427)) (UniProt P53355); assay: co-IP; IP assay of endogenous DANGER and endogenous DAPK in NSCLC cells (NCI-H460, A427), with HG treatment (Figure 3C)

- binding [1]: binds
- binding [2]: binds
- binding [3]: binds
B1: DANGER as used in the IP assays of Figures 3A, 3B and 4D (protein, UniProt Q8IWB1 16-547)
chain: IINHPLLFPRENATVPENEEEIIRKMQAHQEKLQLEQLRLEEEVARLAAEKEALEQVAEEGRQQNETRVAWDLWSTLCMILFLMIEVWRQDHQEGPSPECLGGEEDELPGLGGAPLQGLTLPNKATLGHFYERCIRGATADAARTREFLEGFVDDLLEALRSLCNRDTDMEVEDFIGVDSMYENWQVDRPLLCHLFVPFTPPEPYRFHPELWCSGRSVPLDRQGYGQIKVVRADGDTLSCICGKTKLGEDMLCLLHGRNSMAPPCGDMENLLCATDSLYLDTMQVMKWFQTALTRAWKGIAHKYEFDLAFGQLDSPGSLKIKFRSGKFMPFNLIPVIQCDDSDLYFVSHLPREPSEGTPASSTDWLLSFAVYERHFLRTTLKALPEGACHLSCLQIASFLLSKQSRLTGPSGLSSYHLKTALLHLLLLRQAADWKAGQLDARLHELLCFLEKSLLQKKLHHFFIGNRKVPEAMGLPEAVLRAEPLNLFRPFVLQRSLYRKTLDSFYEMLKNAPALISEYSLHVPSDQPTPKS

- binding [4]: binds
- binding [5]: binds
B2: DANGER-VC (from pBiFC-DANGER-VC) (protein, UniProt Q8IWB1 16-547)
chain: B1 chain

B3: DANGER (ITPRIP, inositol 1,4,5-trisphosphate receptor (IP3R) interacting protein), endogenous (protein, UniProt Q8IWB1 16-547)
chain: B1 chain
- binding [6]: binds
